The assay addresses T1, HA–CSQ2 (hemagglutinin-tagged human calsequestrin 2) (human) (UniProt O14958).
T1 sequence: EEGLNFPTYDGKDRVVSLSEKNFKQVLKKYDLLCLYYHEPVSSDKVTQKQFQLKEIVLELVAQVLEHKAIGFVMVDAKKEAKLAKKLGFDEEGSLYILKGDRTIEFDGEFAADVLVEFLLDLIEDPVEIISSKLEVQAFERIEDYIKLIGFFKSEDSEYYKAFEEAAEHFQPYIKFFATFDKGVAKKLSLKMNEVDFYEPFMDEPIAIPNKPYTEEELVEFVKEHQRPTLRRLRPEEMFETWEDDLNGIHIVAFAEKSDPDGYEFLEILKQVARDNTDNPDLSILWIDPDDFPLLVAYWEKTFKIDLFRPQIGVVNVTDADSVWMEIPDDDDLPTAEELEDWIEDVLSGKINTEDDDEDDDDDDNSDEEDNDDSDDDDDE
Nature of the assay: co-IP; HA–CSQ2 immunoprecipitated with anti-HA from CHAPS-solubilised lysates of co-transfected HEK293 cells; partner detected by immunoblot (Ab1093 or anti-Myc); non-immune rabbit IgG as control; residual micromolar Ca2+.

These are yes or no findings as the source states them, for the method shown. In cells and extracts the contact can be indirect. Tags and fused reporters may be left off the sequences shown.

On to “Myc-tagged BT1B2 (human RyR2 C-terminal fragment) (domain or fragment)”, for which the binding result is given as “no binding”.

Take “Myc-tagged BT1D (human RyR2 C-terminal fragment) (domain or fragment)”: the binding entry is given as “no binding”.

As for “Myc-tagged BT9 (human RyR2 C-terminal fragment) (domain or fragment)”, the binding entry is on record as “no binding”.

The values above are taken from paper PMC5117208.
